Test results: paper PMC7862700
The entries are a selection whose mix differs from that of the whole data set. For part of these data: At the low end of the ranking the order means little.

Molecular target: T1, ELK1 (UniProt P19419)
T1 sequence: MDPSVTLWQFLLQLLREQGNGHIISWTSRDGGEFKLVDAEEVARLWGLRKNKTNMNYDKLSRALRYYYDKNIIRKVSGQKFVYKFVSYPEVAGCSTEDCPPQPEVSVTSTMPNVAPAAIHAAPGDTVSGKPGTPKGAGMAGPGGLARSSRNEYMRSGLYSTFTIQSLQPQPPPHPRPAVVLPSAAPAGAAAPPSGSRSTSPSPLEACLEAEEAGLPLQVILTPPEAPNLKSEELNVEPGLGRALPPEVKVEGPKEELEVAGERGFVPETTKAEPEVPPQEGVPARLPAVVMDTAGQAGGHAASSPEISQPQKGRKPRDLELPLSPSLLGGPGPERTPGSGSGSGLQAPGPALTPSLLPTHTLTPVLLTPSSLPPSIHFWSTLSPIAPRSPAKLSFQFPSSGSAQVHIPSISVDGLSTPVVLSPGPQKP
Experiment: DAPPL (digital affinity profiling via proximity ligation, sequencing)
Conditions: 10 mM Tris-HCl pH 7.5, 50 mM NaCl, 1 mM DTT, 4% glycerol, room temperature, 30 min; GST-TFs on glutathione beads, 16-mer random dsDNA library, 0.1% …; high values mean tight binding; double strand, one strand shown; scale: fold enrichment (6-mer frequency, TF over GST control)

Sequence	binding signal
AATCCA	1.07
CTGGTC	1.23
CAAAGC	1.02

Molecular target: T2, SPIC (UniProt Q8N5J4)
T2 sequence: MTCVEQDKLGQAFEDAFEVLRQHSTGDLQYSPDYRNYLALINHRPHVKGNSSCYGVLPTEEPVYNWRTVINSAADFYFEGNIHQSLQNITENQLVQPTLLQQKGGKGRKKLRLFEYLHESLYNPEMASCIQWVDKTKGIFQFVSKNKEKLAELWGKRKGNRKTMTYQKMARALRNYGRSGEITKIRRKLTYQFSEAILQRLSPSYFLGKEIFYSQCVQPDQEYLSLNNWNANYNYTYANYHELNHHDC
Experiment: as above
Conditions: 10 mM Tris-HCl pH 7.5, 50 mM NaCl, 1 mM DTT, 4% glycerol, room temperature, 30 min; GST-TFs on glutathione beads, 16-mer random dsDNA library, 0.1% …; high values mean tight binding; double strand, one strand shown; scale: fold enrichment (6-mer frequency, TF over GST control)

Sequence	binding signal
AATCTG	1.52
AACCTG	1.04
ATTAAA	1.14
CAAGCA	0.953
GTTGAC	0.967
GTATCA	1.03
AGCATC	0.972
CCATCC	1.33
GTTGTT	0.988
TCTGGC	1.38
CGTCCT	1.27
TTATCC	1.51
ACGTAA	1.12
TTATTC	1.45
CCCAAG	0.968
CCACTC	1.27
TCATCC	1.39
TCCTGG	1.54
AATCCA	0.97
GCTACA	1.33

Sequence	binding signal
ACTATA	1.26
ATAAGA	1.03
ACATCG	0.862
CCGACT	1.53
CTGGTC	1.2
AGCAAA	0.905
GGCATT	0.992
CAAAGC	0.959
CTAACT	1.31
CATTGT	0.933
TAGCAA	1.14
TTGTAG	1.02
CTGGGC	0.903
TCATGA	1.07
TACCCC	0.95
AGTATT	1.22
CTGGTA	1.28
AATCTT	1.38
AATGAC	1.36
